These are yes or no findings as the source states them, for the method shown. Binding seen in cells or lysates may run through a third protein. Some results given as binding are weak or reduced against the parent protein; the word gives no strength.
Molecular target: BMI1 (human (endogenous in 293T-REx and HeLa)) (UniProt P35226)
Assay: co-IP; IP of endogenous BMI1 from the chromatin fraction of HeLa cells, blot for SCML2

By UniProt entry, the sequences of proteins in these tests, tags left out.
UniProt P35226: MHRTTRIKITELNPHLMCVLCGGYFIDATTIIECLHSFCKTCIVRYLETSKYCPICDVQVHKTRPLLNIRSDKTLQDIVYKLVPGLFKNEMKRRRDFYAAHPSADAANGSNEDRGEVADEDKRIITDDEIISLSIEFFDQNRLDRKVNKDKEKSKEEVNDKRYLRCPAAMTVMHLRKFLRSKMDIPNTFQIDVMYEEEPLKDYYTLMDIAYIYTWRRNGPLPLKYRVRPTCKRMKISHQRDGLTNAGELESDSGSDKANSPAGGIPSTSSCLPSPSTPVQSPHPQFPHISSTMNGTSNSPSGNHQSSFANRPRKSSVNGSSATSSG
UniProt Q9UQR0: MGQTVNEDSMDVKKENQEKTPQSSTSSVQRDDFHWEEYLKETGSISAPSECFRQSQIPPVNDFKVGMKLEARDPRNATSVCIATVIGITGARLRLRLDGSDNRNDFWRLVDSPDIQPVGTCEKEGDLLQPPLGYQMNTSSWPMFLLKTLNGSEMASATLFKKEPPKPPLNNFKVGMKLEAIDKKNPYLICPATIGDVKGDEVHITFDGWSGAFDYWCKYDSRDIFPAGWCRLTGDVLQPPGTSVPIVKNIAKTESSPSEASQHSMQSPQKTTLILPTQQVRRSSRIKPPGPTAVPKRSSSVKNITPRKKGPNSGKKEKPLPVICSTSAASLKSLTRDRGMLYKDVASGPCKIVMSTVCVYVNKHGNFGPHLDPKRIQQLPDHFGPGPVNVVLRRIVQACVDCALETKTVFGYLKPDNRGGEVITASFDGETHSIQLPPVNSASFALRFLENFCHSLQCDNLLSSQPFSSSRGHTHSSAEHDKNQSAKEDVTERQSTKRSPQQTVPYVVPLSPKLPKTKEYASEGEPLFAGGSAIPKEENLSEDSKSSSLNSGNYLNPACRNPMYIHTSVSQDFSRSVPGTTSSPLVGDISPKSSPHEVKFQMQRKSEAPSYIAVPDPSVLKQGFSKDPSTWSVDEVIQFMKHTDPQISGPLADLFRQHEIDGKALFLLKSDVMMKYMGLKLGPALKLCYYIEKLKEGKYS

“SCML2A (endogenous, chromatin fraction of HeLa cells) (from UniProt Q9UQR0 1-700)” was tested, and the binding was “binds”.

From PMC4074974
